Source: publication doi:10.1101/2025.03.24.644971
These are yes or no findings as the source states them, for the method shown. Binding seen in cells or lysates may run through a third protein. These calls come from enrichment with a bait or labelling near it, and not all partners need be listed.

B1: Nri1 (Candida-specific RSC subunit) (protein, UniProt Q5ALY5 1-618)
chain: MDVRRCRRCKRKRLDDEPDEVRQYKTCAKCRIIERNKKNSRKPLAEETMLYGLKQFREQQSAENYIEEEGLLKDEFFKRYHNKPFNYQEEITKVLNNPNYVPPVLHNHNTDEVVTSSNGNTTGPKYQMTMKTNNTTGVQPPIKSRKQQQQPQPQQQQQQTQQHRHQQHQHQQQTHHHNQLHHQQETVIVDDEEDLYKILSELGNDDNSAKNDSKIIKENLDPYANDNVYDDFQKYLTTILEKLHSDKDIKNLVYLKEFNEVFTTNMSKFDAYTKDRTTLYQSIRLSEKQFRSHLLSNIRAMYIDPIIACLGLLYKQEYTNINEFKSTTSIKCGFSYIAKSAEQDEIKNLKESSIILVYNKKYHLLVIKLNHTSYRPSEIIYPNEFKQKVASVFGLLQMEEYSPESTAIFQNINLDYNAITGGLVYDKLVSVSHTYSEELQKFLKGLDKDVFIADFVNYEKVFKLDEENGVNDDDDDMDVDEEKPENKEEEQPQQQEQEGDVDVKMDVEEDGDHELENDVSQANKNDNESESVGQTEEEEEEEEEEEIQVEEAHVPSDELELALGESLAIENDNESENEINQTTTTFVSNENKEDDNNNDDILTKKESTVEVLDPVFQF
B2: Nri2 (Candida-specific RSC subunit) (protein, UniProt Q59T87 1-239)
chain: MVKNTSYKKQKLSSRNRIINQEVPLFPPTKYEKSKATLKHFPSSIVNGVTAEGGLYSLTFKSINCASFVENNELMKTVFKVPKLELSKVTDNDDVDKLKNWKQTLENDINELKKSDSNVANTNIVSDLQNELQTDLENNGNNLATFGEKLADSFVVNINISDGNYKVIQDVIIPGLQVDTFEDVTNPDLSEYEKITLSDTQNEEKEETGNKQETEVGQEVESEQKDENKTEQTSQPTST

Molecular target: C. albicans Rsc1 mutated in BD2 (K238E/K241E/K242E), Flag-tagged (C. albicans)
Assay: affinity purification with mass spectrometry

Row | Binder | binding
1 | B1 | binds
2 | B2 | binds
